Assay results from article PMC12131583.
No constants are given. Whether binding was seen depends on the method and setting. In cells and extracts the contact can be indirect. Some entries that bind do so weakly or less than the wild type. Where a sequence is shown, tags or fusion partners need not be part of it.

Amino acid sequences for entries named in this document (tags omitted).
UniProt P17742: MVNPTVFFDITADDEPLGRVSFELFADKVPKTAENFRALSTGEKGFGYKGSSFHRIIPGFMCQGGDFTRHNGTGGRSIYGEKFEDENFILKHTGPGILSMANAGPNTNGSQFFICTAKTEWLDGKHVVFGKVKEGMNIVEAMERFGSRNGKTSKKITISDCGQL

Biological target: T1, HA-tagged PARP3 (PARP3-HA) (human) (UniProt Q9Y6F1)
T1 sequence: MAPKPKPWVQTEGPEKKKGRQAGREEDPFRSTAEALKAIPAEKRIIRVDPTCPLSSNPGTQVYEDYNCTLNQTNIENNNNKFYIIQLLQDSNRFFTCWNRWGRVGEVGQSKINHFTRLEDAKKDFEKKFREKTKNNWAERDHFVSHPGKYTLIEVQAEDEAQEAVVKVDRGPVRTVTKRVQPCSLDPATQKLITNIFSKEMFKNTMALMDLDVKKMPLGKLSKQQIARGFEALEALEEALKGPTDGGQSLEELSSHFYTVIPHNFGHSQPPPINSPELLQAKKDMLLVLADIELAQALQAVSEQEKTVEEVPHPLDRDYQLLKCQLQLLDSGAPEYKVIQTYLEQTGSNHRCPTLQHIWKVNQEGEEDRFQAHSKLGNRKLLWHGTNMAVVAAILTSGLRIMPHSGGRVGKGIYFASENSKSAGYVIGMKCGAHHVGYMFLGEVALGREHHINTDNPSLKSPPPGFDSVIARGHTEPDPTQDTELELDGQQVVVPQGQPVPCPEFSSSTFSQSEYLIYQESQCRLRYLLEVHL
Test: co-IP; 500 ug precleared cell lysate in IP buffer (50 mM Hepes, 150 mM NaCl, 10% glycerol, 0.1% Triton X-100, 20 mM MgCl2, 1% EDTA), IP antibody at 4 C overnight, Protein A+G magnetic beads 3 to 4 h, western blot; cells and IP antibody of this experiment not stated

- binding: binds
Substance: Ppia (as used in the Co-IP validation, Fig. 3D) (from UniProt P17742 1-164)
